In paper doi:10.1101/2023.03.06.531406 one finds binding data, which are given here for 1 substance.

Sequences of proteins named here, by UniProt entry; tags and fusion partners are left off. Residues count along the entry.
UniProt P18572, residues 217-389: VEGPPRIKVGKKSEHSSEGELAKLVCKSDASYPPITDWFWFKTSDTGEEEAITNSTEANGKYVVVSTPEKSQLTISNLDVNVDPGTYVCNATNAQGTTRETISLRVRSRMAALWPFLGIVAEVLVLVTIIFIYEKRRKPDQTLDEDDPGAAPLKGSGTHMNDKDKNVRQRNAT

These are yes or no findings as the source states them, for the method shown. In cells and extracts the contact can be indirect. Some binding calls cover weakened binding; strength is not graded here. Sequences can lack the tags named with a protein.

The test has as its target T1, Flag-tagged calpain 4 (full length) (UniProt O88456).
T1 sequence: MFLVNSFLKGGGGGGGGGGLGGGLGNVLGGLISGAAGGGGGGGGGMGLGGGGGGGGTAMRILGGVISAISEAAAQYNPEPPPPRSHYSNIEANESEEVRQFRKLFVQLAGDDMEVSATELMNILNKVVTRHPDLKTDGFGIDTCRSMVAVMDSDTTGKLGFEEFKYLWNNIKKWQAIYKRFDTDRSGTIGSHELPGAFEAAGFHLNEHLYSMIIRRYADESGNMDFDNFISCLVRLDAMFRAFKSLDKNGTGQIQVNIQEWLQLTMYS
Briefly: co-IP.

Take “HA-tagged basigin lacking the N-terminal 100 amino acids (from UniProt P18572-2 101-273) (domain or fragment)”: the binding entry is “binds”.
